Consider 24 molecules from the supplement of paper PMC8426693.

Common to all, as to test: NMR binding call after quantification (hit when 2 of 3 NMR criteria are met) (binary (1 = binding, 0 = not binding)); higher = binding
Holding throughout (conditions): RNA concentration 10 µM; fragment concentration 200 µM; 293 K

In test [1] the test system is SARS-CoV-2 5'-UTR RNA.
For test [2], the system named is SARS-CoV-2 5_SL1234 RNA.
For test [3], the system named is SARS-CoV-2 5_SL2+3 RNA.
In test [4] the test system is SARS-CoV-2 5_SL4 RNA.
Test [5] concerns SARS-CoV-2 5_SL5 RNA.
Test [6] deals with SARS-CoV-2 5_SL5a RNA.
Test [7] concerns SARS-CoV-2 5_SL5stem RNA.
In test [8] the test system is SARS-CoV-2 5_SL6 RNA.
For test [9], the system named is SARS-CoV-2 5_SL5b+c RNA.
In test [10] the test system is SARS-CoV-2 5_SL1 RNA.

SMILES strings stand for the structures. This is one part of the list.

`CCCn1nccc1-c1ccncc1`: the NMR binding call in test [1], in test [2], in test [3], in [4], in test [5] and in test [6] was 0 each time. Besides, the NMR binding call in test [7] and in [8] was 0 throughout.

On to `OCc1cn(-c2ccc(Cl)cc2)nn1`, for which the NMR binding call in test [1], in test [2], in test [3], in test [4], in [6] and in test [9] was 0 in each case. Moreover, the NMR binding call in test [7] and in test [8] was 0 each time.

As for `CC(=O)Nc1ccncc1C`, the NMR binding call in test [1] and in test [4] was 0 throughout.

Take `CNC1CCCN(c2cccnn2)C1` (centres undefined): the NMR binding call in [1], in [2], in test [3], in test [4], in test [5] and in test [6] was 0 each time. For the same molecule, the NMR binding call in test [7] and in test [8] was 0 throughout.

Regarding `Cc1occc1C(=O)Nc1ccncc1`, the NMR binding call in test [1] was 1; in [10] it was 1; in test [5], 1; in test [9], 0; in test [7] it was 1.

As for `CNc1nccc(OC)n1`, the NMR binding call in [1], in test [10], in test [4], in test [6] and in [9] was 0 in each case.

Regarding `Cl.NCc1cc(-c2ccccc2)no1`, the NMR binding call in [1] was found to be 1; in [10], 0; in test [3] it was 0; in test [9], 0.

With `O=C(Nc1ccc2ncccc2c1)c1ccccc1`, the NMR binding call in test [1] turned out to be 1; in test [10] it was 0; in test [3], 0; in [5], 1; in test [9], 0; in test [8] it was 0.

For the molecule `c1cc(-c2ccc3c(c2)OCO3)n[nH]1`, the NMR binding call came out at 1 in test [1]; 0 in [10]; 0 in test [3]; 1 in [5]; 0 in test [9]; 0 in test [7].

Regarding `N#Cc1ccc(NC(=O)c2cccs2)cc1`, the NMR binding call was found to be 1 in test [1]; 0 in test [10]; 0 in test [3]; 1 in test [5]; 0 in test [9].

`c1csc(-c2nnc[nH]2)n1`: the NMR binding call in test [1], in test [2], in test [4], in test [5], in [6] and in [7] was 0 in each case. Moreover, the NMR binding call in [8] came out at 0.

For `Cc1nccc(N2CCC(N)CC2)n1`, the NMR binding call in test [1] amounted to 1; in test [10] it was 0; in [9], 1.

As to `c1csc(CNCc2ccncc2)c1`, the NMR binding call in [1], in test [10], in test [4], in test [5], in test [6] and in test [9] was 0 each time. Moreover, the NMR binding call in [7] and in [8] was 0 each time.

For the molecule `CNC(=O)c1ccccc1NC(=O)c1ccco1`, the NMR binding call is 1 in [1]; 0 in test [10]; 0 in [4]; 1 in [5]; 1 in test [8].

For `NC(=O)c1ccc(NC(=O)c2cnccn2)cc1`, the NMR binding call in test [1], in test [10], in test [3] and in test [9] was 0 each time.

`Oc1ccc(CN2CCc3ccccc3C2)cc1`: the NMR binding call in test [10], in [2], in [3], in [4], in test [5] and in test [6] was 0 in each case. The NMR binding call in test [9], in test [7] and in test [8] was 0 in each case.

Consider `Cc1ccc(CNC(=O)C2CCC2)cn1`, for which the NMR binding call in test [1], in test [2], in test [4], in [5], in test [9] and in [7] was 0 in each case. Further, the NMR binding call in test [8] was 0.

With `NC(=O)c1ccnc(NC2CC=CC2)c1`, the NMR binding call is 0 in test [1]; 0 in [2]; 1 in test [4]; 1 in test [5]; 0 in [6].

Turning to `COc1ccc(CN)cc1OC`, the NMR binding call in test [10], in [2], in test [3], in test [4], in test [5] and in test [6] was 0 each time. In addition, the NMR binding call is 1 in [9], 0 in test [7] and 0 in test [8].

Regarding `Cn1nnc(NC(=O)c2ccc(Cl)cc2)n1`, the NMR binding call in test [1], in test [10], in test [3], in test [5], in test [6] and in test [9] was 0 each time. Also, the NMR binding call in [7] and in test [8] was 0 each time.

Take `CC(CO)N(C)c1ncc(Cl)cn1` (centres undefined): the NMR binding call in test [1], in test [10], in [3] and in test [9] was 0 in each case.

Regarding `c1csc(-c2ncc[nH]2)c1`, the NMR binding call in [1], in test [10], in [4], in test [5], in test [6] and in test [7] was 0 in each case.

With `CCN(CC)c1cccc(O)c1`, the NMR binding call in test [1], in [10], in test [4], in test [5], in test [6] and in [9] was 0 throughout. In addition, the NMR binding call in [7] and in test [8] was 0 each time.

Turning to `CC(=O)Nc1ccc(N2CCN(C)CC2)cc1`, the NMR binding call in test [10], in [2], in test [3], in [4], in [5] and in test [6] was 0 throughout. For the same molecule, the NMR binding call in [9], in test [7] and in test [8] was 0 throughout.
